# Data source: PubChem BioAssay AID1671195 (Yale University, 2021)
# Test: 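Regulators of LDL receptor activity judged by labelled LDL uptake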 (primary screen)
# Cell system: human Huh7 hepatoma cells
# Reagent: siRNA pool against human genes, 18 nM
# Duration: about 2 to 2.5 days of knockdown, then 8 h LDL uptake
# Treatment: DiI-labelled LDL at 30 µg/ml for 8 h, in lipoprotein-deficient serum medium
# Measured: 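Fluorescent LDL signal imaged in cells, scaled to the plate median, robust z-score for each replicate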
# Reading the numbers: robust z-score: higher = more LDL uptake after knockdown
# Active means: 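Active when two or more replicates show a robust z-score above 2 or below -2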
# Here is a random part of about 22,000 reagents. In the full data, about 1,510 (6.9%) are marked active. 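Active includes knockdowns raising or lowering LDL uptake; positive z-scores mean more uptake, negative mean less.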 Entries without a mark were called inactive. Reagents against one gene are numbered here.
Gene,reagent,"robust z-score, replicate 1","robust z-score, replicate 2","robust z-score, replicate 3"
CNKSR1,1,0.551,0.00817,0.255
HS3ST2,1,0.483 (active),-2.59,-2.01
NXPH4,1,0.559,-0.52,1.22
PRMT6,1,0.187,-0.597,-0.143
PXK,1,-1.98 (active),-1.68,-2.13
HEATR9,1,0.297,0.118,0.365
MAPRE1,1,-0.717,0.125,-0.455
RASA4,1,0.348,0.397,0.483
LINC02709,1,-0.287,-0.311,-0.305
OLAH,1,0.532,-0.0445,0.123
ERVFRD-1,1,1.41,1.6,2.69
CDK1,1,2.75 (active),2.86,5.55
ELAVL4,1,-0.456,-0.637,-0.483
UBE2M,1,0.918,0.448,-0.568
R3HDML,1,-1.33,-1.8,-1.11
LOC442277 (retired record),1,0.626,0.448,0.572
ZNF836,1,-0.0999,0.0795,-0.156
ROGDI,1,-1.1,-1.02,-1.12
LOC389250 (retired record),1,-0.342,-0.0802,-0.338
C18orf54,1,2.43,1.6,1.29
SH3BGRL3,1,-0.727,-1.16,-1.22
UBALD1,1,0.261,0.942,0.783

Continued, starting with the last 5 of the part before.
Gene,reagent,"robust z-score, replicate 1","robust z-score, replicate 2","robust z-score, replicate 3"
ROGDI,1,-1.1,-1.02,-1.12
LOC389250 (retired record),1,-0.342,-0.0802,-0.338
C18orf54,1,2.43,1.6,1.29
SH3BGRL3,1,-0.727,-1.16,-1.22
UBALD1,1,0.261,0.942,0.783
LOC389331 (retired record),1,0.973,1.25,1.6
LY6G6F,1,0.802,1.11,1.3
PDHB,1,0.102,0.808,0.492
RTL6,1,3.92 (active),2.23,2.38
ANP32F (retired record),1,-0.19,-0.296,-0.327
ZNF33A,1,0.0919,0.201,0.118
LOC441616 (retired record),1,0.591,1.18,0.99
SPRR4,1,0.919,0.617,1.01
APLP1,1,-0.664,-0.125,-0.294
LOC440715 (retired record),1,-1.02,-0.479,-0.926
KRT23,1,-0.185,-0.295,0.293
MCM3AP,1,0.0973,0.301,0.661
FAAH2,1,0.0416,0.538,0.297
OR2L3,1,-0.719,-0.315,-0.498
KIFBP,1,-1.41,-1.3,-1.01
TXNDC15,1,-0.414,-0.16,-0.418
ZNF256,1,-0.523,0.427,-0.609
SEPTIN14,1,1.37,1.1,1.03
VILL,1,0.298,-0.988,1.61
MTRFR,1,0.2,0.229,0.295
THSD1,1,-0.655,-1.25,-1.7
PKD2,1,-0.716,-0.837,-0.225
NR2F2,1,1.33,1.18,0.868
NHSL2,1,-0.416,1.88,1.31
NHSL2,2,-0.213,-0.502,0.0783
LOC441053 (retired record),1,-0.314,-0.308,-0.678
TIMM50,1,0.154,-0.418,-0.377
WFDC13,1,2.34 (active),2.88,2.17
NOL10,1,1.06,1.01,1.24
LOC388641 (retired record),1,-0.902,-0.414,-0.696
TEKT4,1,-1.31,-2.09,-1.14
LOC440066 (retired record),1,-0.776,-0.329,-0.418
GTPBP1,1,4.61 (active),3.99,6.14
PAAF1,1,1.77,0.953,0.893
LOC440399 (retired record),1,-0.485,-0.844,-0.566
MERTK,1,1.17,1.95,1.15
LOC389069 (retired record),1,-1.37,-1.56,-1.75
CDK19,1,-0.453,-0.844,0.0052
UGT2B17,1,0.975,0.852,1.18
TREML2,1,3.22 (active),2.86,3.25
ANKRD20A3P,1,1.01,0.596,1.06
SPEF2,1,-0.513,-0.342,-0.924
KRTAP4-1,1,5.34 (active),3.08,5.91
LOC345537 (retired record),1,-1.15,-1.39,-1.29
TFF3,1,-1.12,-0.34,0.0287
CENPO,1,-0.763,-0.109,0.102
